These are yes or no findings as the source states them, for the method shown. Binding seen in cells or lysates may run through a third protein. Some binding calls cover weakened binding; strength is not graded here.
Experiments:
Assay in all cases: split reporter
[1] = target: T1, Cdc24 extended by the Cub-RUra3 module (Cdc24CRU) (yeast) (UniProt P11433)
T1 sequence: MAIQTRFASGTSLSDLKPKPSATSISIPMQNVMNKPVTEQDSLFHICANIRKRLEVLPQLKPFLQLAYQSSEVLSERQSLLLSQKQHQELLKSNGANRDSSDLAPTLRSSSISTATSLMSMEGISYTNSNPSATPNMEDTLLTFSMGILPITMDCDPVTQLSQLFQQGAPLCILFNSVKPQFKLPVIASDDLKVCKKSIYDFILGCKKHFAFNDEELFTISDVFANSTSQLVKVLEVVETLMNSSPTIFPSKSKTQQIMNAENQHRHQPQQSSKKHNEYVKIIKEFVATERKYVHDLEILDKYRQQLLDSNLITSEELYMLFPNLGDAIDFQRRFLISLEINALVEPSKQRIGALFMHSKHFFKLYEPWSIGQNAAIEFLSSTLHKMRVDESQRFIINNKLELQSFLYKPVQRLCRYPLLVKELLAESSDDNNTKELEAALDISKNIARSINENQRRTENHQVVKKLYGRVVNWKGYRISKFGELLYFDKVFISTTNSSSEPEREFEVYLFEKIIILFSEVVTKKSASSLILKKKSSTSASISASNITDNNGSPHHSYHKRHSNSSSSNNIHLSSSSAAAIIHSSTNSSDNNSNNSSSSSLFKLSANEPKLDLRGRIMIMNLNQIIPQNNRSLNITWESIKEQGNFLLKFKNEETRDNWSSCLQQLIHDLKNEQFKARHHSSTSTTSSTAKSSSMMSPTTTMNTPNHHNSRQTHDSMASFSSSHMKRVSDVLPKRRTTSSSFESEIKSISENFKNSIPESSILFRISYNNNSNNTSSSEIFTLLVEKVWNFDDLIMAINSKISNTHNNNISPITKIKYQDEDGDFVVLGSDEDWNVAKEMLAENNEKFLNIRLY

[2] = target: T2, Cdc24KKCRU (yeast) (UniProt P11433)
T2 sequence: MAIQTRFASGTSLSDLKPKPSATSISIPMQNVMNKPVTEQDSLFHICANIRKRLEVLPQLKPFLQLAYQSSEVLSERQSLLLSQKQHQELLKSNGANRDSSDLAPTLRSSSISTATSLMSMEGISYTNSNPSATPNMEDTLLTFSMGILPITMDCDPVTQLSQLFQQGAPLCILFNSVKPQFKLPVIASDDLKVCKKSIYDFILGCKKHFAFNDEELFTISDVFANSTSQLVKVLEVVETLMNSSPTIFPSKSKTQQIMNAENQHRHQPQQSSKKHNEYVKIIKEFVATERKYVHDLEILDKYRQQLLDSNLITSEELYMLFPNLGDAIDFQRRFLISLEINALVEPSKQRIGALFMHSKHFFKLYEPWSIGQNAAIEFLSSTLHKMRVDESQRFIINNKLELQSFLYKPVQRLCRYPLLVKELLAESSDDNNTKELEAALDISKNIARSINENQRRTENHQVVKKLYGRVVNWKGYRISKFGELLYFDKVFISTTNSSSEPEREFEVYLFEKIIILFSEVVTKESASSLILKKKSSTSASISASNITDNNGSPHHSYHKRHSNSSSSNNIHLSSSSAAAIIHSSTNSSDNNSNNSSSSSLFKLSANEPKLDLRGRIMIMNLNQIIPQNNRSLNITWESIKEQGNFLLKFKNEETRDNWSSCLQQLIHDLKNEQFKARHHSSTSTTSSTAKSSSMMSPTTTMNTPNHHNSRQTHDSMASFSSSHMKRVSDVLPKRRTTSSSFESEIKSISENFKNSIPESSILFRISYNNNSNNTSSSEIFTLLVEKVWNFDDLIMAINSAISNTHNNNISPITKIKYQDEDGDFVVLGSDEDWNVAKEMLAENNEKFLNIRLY

[3] = target: T3, Cdc24_(428-854)CRU (yeast) (UniProt P11433)
T3 sequence: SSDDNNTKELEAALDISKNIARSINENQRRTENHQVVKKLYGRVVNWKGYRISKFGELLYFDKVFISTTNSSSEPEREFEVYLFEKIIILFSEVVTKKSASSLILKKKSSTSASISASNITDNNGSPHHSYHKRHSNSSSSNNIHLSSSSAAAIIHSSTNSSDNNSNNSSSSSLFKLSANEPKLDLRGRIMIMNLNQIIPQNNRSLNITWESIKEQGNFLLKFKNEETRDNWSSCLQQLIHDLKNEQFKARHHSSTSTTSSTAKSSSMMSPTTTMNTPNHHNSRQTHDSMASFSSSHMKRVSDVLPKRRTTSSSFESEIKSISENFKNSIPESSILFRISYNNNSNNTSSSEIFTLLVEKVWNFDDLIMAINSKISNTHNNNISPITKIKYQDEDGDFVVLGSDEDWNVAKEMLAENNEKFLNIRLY

B1: Nub-Cdc11 (protein, UniProt P32458 1-415)
chain: MSGIIDASSALRKRKHLKRGITFTVMIVGQSGSGRSTFINTLCGQQVVDTSTTILLPTDTSTEIDLQLREETVELEDDEGVKIQLNIIDTPGFGDSLDNSPSFEIISDYIRHQYDEILLEESRVRRNPRFKDGRVHCCLYLINPTGHGLKEIDVEFIRQLGSLVNIIPVISKSDSLTRDELKLNKKLIMEDIDRWNLPIYNFPFDEDEISDEDYETNMYLRTLLPFAIIGSNEVYEMGGDVGTIRGRKYPWGILDVEDSSISDFVILRNALLISHLHDLKNYTHEILYERYRTEALSGESVAAESIRPNLTKLNGSSSSSTTTRRNTNPFKQSNNINNDVLNPASDMHGQSTGENNETYMTREEQIRLEEERLKAFEERVQQELLLKRQELLQREKELREIEARLEKEAKIKQEE
- binding [1]: binds
- binding [2]: binds weakly
- binding [3]: binds

From publication doi:10.1101/719815 (bioRxiv, 2019)
